Paper PMC7694386
These are yes or no findings as the source states them, for the method shown. Binding seen in cells or lysates may run through a third protein. Here binding means that the protein was enriched with, or labelled near, the bait; the list need not be complete.

By UniProt entry, the sequences of proteins in these tests, tags left out.
UniProt O95817: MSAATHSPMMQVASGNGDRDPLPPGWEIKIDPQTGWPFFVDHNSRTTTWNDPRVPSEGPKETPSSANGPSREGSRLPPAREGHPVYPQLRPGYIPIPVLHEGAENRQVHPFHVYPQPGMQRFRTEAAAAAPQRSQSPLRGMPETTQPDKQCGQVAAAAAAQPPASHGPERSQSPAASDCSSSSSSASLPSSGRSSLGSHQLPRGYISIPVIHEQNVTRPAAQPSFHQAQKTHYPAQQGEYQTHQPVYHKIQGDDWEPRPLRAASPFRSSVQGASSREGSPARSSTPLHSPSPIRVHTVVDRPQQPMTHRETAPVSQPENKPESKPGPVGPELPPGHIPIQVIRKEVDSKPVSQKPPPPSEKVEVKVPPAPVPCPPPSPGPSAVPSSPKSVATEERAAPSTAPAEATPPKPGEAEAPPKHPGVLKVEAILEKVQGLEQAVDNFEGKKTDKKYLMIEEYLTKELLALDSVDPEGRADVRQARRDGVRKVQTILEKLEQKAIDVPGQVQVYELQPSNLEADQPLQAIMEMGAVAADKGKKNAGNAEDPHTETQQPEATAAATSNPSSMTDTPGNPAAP

B1: CSTF1 (protein, UniProt Q05048 1-431)
chain: MYRTKVGLKDRQQLYKLIISQLLYDGYISIANGLINEIKPQSVCAPSEQLLHLIKLGMENDDTAVQYAIGRSDTVAPGTGIDLEFDADVQTMSPEASEYETCYVTSHKGPCRVATYSRDGQLIATGSADASIKILDTERMLAKSAMPIEVMMNETAQQNMENHPVIRTLYDHVDEVTCLAFHPTEQILASGSRDYTLKLFDYSKPSAKRAFKYIQEAEMLRSISFHPSGDFILVGTQHPTLRLYDINTFQCFVSCNPQDQHTDAICSVNYNSSANMYVTGSKDGCIKLWDGVSNRCITTFEKAHDGAEVCSAIFSKNSKYILSSGKDSVAKLWEISTGRTLVRYTGAGLSGRQVHRTQAVFNHTEDYVLLPDERTISLCCWDSRTAERRNLLSLGHNNIVRCIVHSPTNPGFMTCSDDFRARFWYRRSTTD
B2: ASNS (protein, UniProt P08243 1-561)
chain: MCGIWALFGSDDCLSVQCLSAMKIAHRGPDAFRFENVNGYTNCCFGFHRLAVVDPLFGMQPIRVKKYPYLWLCYNGEIYNHKKMQQHFEFEYQTKVDGEIILHLYDKGGIEQTICMLDGVFAFVLLDTANKKVFLGRDTYGVRPLFKAMTEDGFLAVCSEAKGLVTLKHSATPFLKVEPFLPGHYEVLDLKPNGKVASVEMVKYHHCRDVPLHALYDNVEKLFPGFEIETVKNNLRILFNNAVKKRLMTDRRIGCLLSGGLDSSLVAATLLKQLKEAQVQYPLQTFAIGMEDSPDLLAARKVADHIGSEHYEVLFNSEEGIQALDEVIFSLETYDITTVRASVGMYLISKYIRKNTDSVVIFSGEGSDELTQGYIYFHKAPSPEKAEEESERLLRELYLFDVLRADRTTAAHGLELRVPFLDHRFSSYYLSLPPEMRIPKNGIEKHLLRETFEDSNLIPKEILWRPKEAFSDGITSVKNSWFKILQEYVEHQVDDAMMANAAQKFPFNTPKTKEGYYYRQVFERHYPGRADWLSHYWMPKWINATDPSARTLTHYKSAVKA
B3: RBFOX3 (protein, UniProt A6NFN3 1-312)
chain: MAQPYPPAQYPPPPQNGIPAEYAPPPPHPTQDYSGQTPVPTEHGMTLYTPAQTHPEQPGSEASTQPIAGTQTVPQTDEAAQTDSQPLHPSDPTEKQQPKRLHVSNIPFRFRDPDLRQMFGQFGKILDVEIIFNERGSKGFGFVTFETSSDADRAREKLNGTIVEGRKIEVNNATARVMTNKKTGNPYTNGWKLNPVVGAVYGPEFYAVTGFPYPTTGTAVAYRGAHLRGRGRAVYNTFRAAPPPPPIPTYGAVVYQDGFYGAEIYGGYAAYRYAQPAAAAAAYSDSYGRVYAAADPYHHTIGPAATYSIGTM
B4: RBFOX1 (protein, UniProt Q9NWB1 1-397)
chain: MNCEREQLRGNQEAAAAPDTMAQPYASAQFAPPQNGIPAEYTAPHPHPAPEYTGQTTVPEHTLNLYPPAQTHSEQSPADTSAQTVSGTATQTDDAAPTDGQPQTQPSENTENKSQPKRLHVSNIPFRFRDPDLRQMFGQFGKILDVEIIFNERGSKGFGFVTFENSADADRAREKLHGTVVEGRKIEVNNATARVMTNKKTVNPYTNGWKLNPVVGAVYSPEFYAGTVLLCQANQEGSSMYSAPSSLVYTSAMPGFPYPAATAAAAYRGAHLRGRGRTVYNTFRAAAPPPPIPAYGGVVYQDGFYGADIYGGYAAYRYAQPTPATAAAYSDSYGRVYAADPYHHALAPAPTYGVGAMNAFAPLTDAKTRSHADDVGLVLSSLQASIYRGGYNRFAPY
B5: Peptidyl-prolyl cis-trans isomerase FKBP4 (protein, UniProt Q02790 1-459)
chain: MTAEEMKATESGAQSAPLPMEGVDISPKQDEGVLKVIKREGTGTEMPMIGDRVFVHYTGWLLDGTKFDSSLDRKDKFSFDLGKGEVIKAWDIAIATMKVGEVCHITCKPEYAYGSAGSPPKIPPNATLVFEVELFEFKGEDLTEEEDGGIIRRIQTRGEGYAKPNEGAIVEVALEGYYKDKLFDQRELRFEIGEGENLDLPYGLERAIQRMEKGEHSIVYLKPSYAFGSVGKEKFQIPPNAELKYELHLKSFEKAKESWEMNSEEKLEQSTIVKERGTVYFKEGKYKQALLQYKKIVSWLEYESSFSNEEAQKAQALRLASHLNLAMCHLKLQAFSAAIESCNKALELDSNNEKGLFRRGEAHLAVNDFELARADFQKVLQLYPNNKAAKTQLAVCQQRIRRQLAREKKLYANMFERLAEEENKAKAEASSGDHPTDTEMKEEQKSNTAGSQSQVETEA
B6: CSTF2 (protein, UniProt P33240 1-577)
chain: MAGLTVRDPAVDRSLRSVFVGNIPYEATEEQLKDIFSEVGPVVSFRLVYDRETGKPKGYGFCEYQDQETALSAMRNLNGREFSGRALRVDNAASEKNKEELKSLGTGAPVIESPYGETISPEDAPESISKAVASLPPEQMFELMKQMKLCVQNSPQEARNMLLQNPQLAYALLQAQVVMRIVDPEIALKILHRQTNIPTLIAGNPQPVHGAGPGSGSNVSMNQQNPQAPQAQSLGGMHVNGAPPLMQASMQGGVPAPGQMPAAVTGPGPGSLAPGGGMQAQVGMPGSGPVSMERGQVPMQDPRAAMQRGSLPANVPTPRGLLGDAPNDPRGGTLLSVTGEVEPRGYLGPPHQGPPMHHVPGHESRGPPPHELRGGPLPEPRPLMAEPRGPMLDQRGPPLDGRGGRDPRGIDARGMEARAMEARGLDARGLEARAMEARAMEARAMEARAMEARAMEVRGMEARGMDTRGPVPGPRGPIPSGMQGPSPINMGAVVPQGSRQVPVMQGTGMQGASIQGGSQPGGFSPGQNQVTPQDHEKAALIMQVLQLTADQIAMLPPEQRQSILILKEQIQKSTGAP
B7: tRNA-splicing ligase RtcB homolog (protein, UniProt Q9Y3I0 1-505)
chain: MSRSYNDELQFLEKINKNCWRIKKGFVPNMQVEGVFYVNDALEKLMFEELRNACRGGGVGGFLPAMKQIGNVAALPGIVHRSIGLPDVHSGYGFAIGNMAAFDMNDPEAVVSPGGVGFDINCGVRLLRTNLDESDVQPVKEQLAQAMFDHIPVGVGSKGVIPMNAKDLEEALEMGVDWSLREGYAWAEDKEHCEEYGRMLQADPNKVSARAKKRGLPQLGTLGAGNHYAEIQVVDEIFNEYAAKKMGIDHKGQVCVMIHSGSRGLGHQVATDALVAMEKAMKRDKIIVNDRQLACARIASPEGQDYLKGMAAAGNYAWVNRSSMTFLTRQAFAKVFNTTPDDLDLHVIYDVSHNIAKVEQHVVDGKERTLLVHRKGSTRAFPPHHPLIAVDYQLTGQPVLIGGTMGTCSYVLTGTEQGMTETFGTTCHGAGRALSRAKSRRNLDFQDVLDKLADMGIAIRVASPKLVMEEAPESYKNVTDVVNTCHDAGISKKAIKLRPIAVIKG
B8: PATL1 (protein, UniProt Q86TB9 1-770)
chain: MFRYESLEDCPLDEDEDAFQGLGEEDEEIDQFNDDTFGSGAVDDDWQEAHERLAELEEKLPVAVNEQTGNGERDEMDLLGDHEENLAERLSKMVIENELEDPAIMRAVQTRPVLQPQPGSLNSSIWDGSEVLRRIRGPLLAQEMPTVSVLEYALPQRPPQGPEDDRDLSERALPRRSTSPIIGSPPVRAVPIGTPPKQMAVPSFTQQILCPKPVHVRPPMPPRYPAPYGERMSPNQLCSVPNSSLLGHPFPPSVPPVLSPLQRAQLLGGAQLQPGRMSPSQFARVPGFVGSPLAAMNPKLLQGRVGQMLPPAPGFRAFFSAPPSATPPPQQHPPGPGPHLQNLRSQAPMFRPDTTHLHPQHRRLLHQRQQQNRSQHRNLNGAGDRGSHRSSHQDHLRKDPYANLMLQREKDWVSKIQMMQLQSTDPYLDDFYYQNYFEKLEKLSAAEEIQGDGPKKERTKLITPQVAKLEHAYKPVQFEGSLGKLTVSSVNNPRKMIDAVVTSRSEDDETKEKQVRDKRRKTLVIIEKTYSLLLDVEDYERRYLLSLEEERPALMDDRKHKICSMYDNLRGKLPGQERPSDDHFVQIMCIRKGKRMVARILPFLSTEQAADILMTTARNLPFLIKKDAQDEVLPCLLSPFSLLLYHLPSVSITSLLRQLMNLPQSAATPALSNPHLTAVLQNKFGLSLLLILLSRGEDLQSSDPATESTQNNQWTEVMFMATRELLRIPQAALAKPISIPTNLVSLFSRYVDRQKLNLLETKLQLVQGIR
B9: PMF1 (protein, UniProt Q6P1K2 1-205)
chain: MAEASSANLGSGCEEKRHEGSSSESVPPGTTISRVKLLDTMVDTFLQKLVAAGSYQRFTDCYKCFYQLQPAMTQQIYDKFIAQLQTSIREEISDIKEEGNLEAVLNALDKIVEEGKVRKEPAWRPSGIPEKDLHSVMAPYFLQQRDTLRRHVQKQEAENQQLADAVLAGRRQVEELQLQVQAQQQAWQALHREQRELVAVLREPE
B10: Rab11 family-interacting protein 1 (protein, UniProt Q6WKZ4 1-1283)
chain: MSLMVSAGRGLGAVWSPTHVQVTVLQARGLRAKGPGGTSDAYAVIQVGKEKYATSVSERSLGAPVWREEATFELPSLLSSGPAAAATLQLTVLHRALLGLDKFLGRAEVDLRDLHRDQGRRKTQWYKLKSKPGKKDKERGEIEVDIQFMRNNMTASMFDLSMKDKSRNPFGKLKDKIKGKNKDSGSDTASAIIPSTTPSVDSDDESVVKDKKKKSKIKTLLSKSNLQKTPLSQSMSVLPTSKPEKVLLRPGDFQSQWDEDDNEDESSSASDVMSHKRTASTDLKQLNQVNFTLPKKEGLSFLGGLRSKNDVLSRSNVCINGNHVYLEQPEAKGEIKDSSPSSSPSPKGFRKKHLFSSTENLAAGSWKEPAEGGGLSSDRQLSESSTKDSLKSMTLPSYRPAPLVSGDLRENMAPANSEATKEAKESKKPESRRSSLLSLMTGKKDVAKGSEGENPLTVPGREKEGMLMGVKPGEDASGPAEDLVRRSEKDTAAVVSRQGSSLNLFEDVQITEPEAEPESKSEPRPPISSPRAPQTRAVKPRLEVSPEAQPTARLPSPTDSPSSLPPLPSSSGQASVPSELGHGADTQSSESPSVFSSLSSPIAAPISTSTPIESWPLVDRGQAKSEGPPLLPKAELQTESLTPVPNSGSSALGSLFKQPSFPANKGTEDSLMGRTRETGTEKNTSSLELEESLPEQPETGRQEEELPRFPCKKQDYSPSSGEAQEVPFALSLSSDGAVSPVGELAAGGDRDLESQAGSLVESKARDAAEEVAPPLPMGASVPSIDSMMRKLEEMGLNLRKDQKKTKKRVSFSEQLFTEEAVAGAALLVEGHSSCPQELNPAWSVAGNASDGEPPESPHAEDSERESVTTPGPATCGAPASPADHLLLPSQEESFSEVPMSEASSAKDTPLFRMEGEDALVTQYQSKASDHEGLLSDPLSDLQLVSDFKSPIMADLNLSLPSIPEVASDDERIDQVEDDGDQVEDDGETAKSSTLDIGALSLGLVVPCPERGKGPSGEADRLVLGEGLCDFRLQAPQASVTAPSEQTTEFGIHKPHLGKSSSLDKQLPGPSGGEEEKPMGNGSPSPPPGTSLDNPVPSPSPSEIFPVTHSFPSSAHSDTHHTSTAESQKKATAEGSAGRVENFGKRKPLLQAWVSPSETHPVSAQPGAGTGSAKHRLHPVKPMNAMATKVANCSLGTATIISENLNNEVMMKKYSPSDPAFAYAQLTHDELIQLVLKQKETISKKEFQVRELEDYIDNLLVRVMEETPNILRIPTQVGKKAGKM

target: BAG3 (BCL-2-associated athanogene 3) (human (endogenous in HEK293T)) (UniProt O95817); experiment: affinity purification with mass spectrometry; endogenous BAG3 immunoprecipitated with anti-BAG3 antibody and Protein A/G magnetic beads from HEK293T lysate; cells treated with DMSO (basal) or 10 µM MG132 for 6 h; IgG IP (MG132_IgG) as control; label-free quantification, three biological replicates

binding	Binder
binds	B1
binds	B2
binds	B3
binds	B4
binds	B5
binds	B6
binds	B7
binds	B8
binds	B9
binds	B10
